Data taken from patent US7514561B2, “Pesticidal 5-(acylamino) pyrazole derivatives” (Merial Limited, priority 2003, dated 2009).
Some entries share one result that the patent states for a list of compounds.

How the values were obtained:
Assay type in all cases: in vivo
[1] = tested on: Ctenocephalides felis (Cat flea); assay: Method D: screening method to test contact activity against Ctenocephalides felis (filter paper); conditions: test concentration of 1000 ppm; adults on treated filter paper; assessed 24 and 48 hours after application
[2] = tested on: Ctenocephalides felis (Cat flea); assay: Method A: screening method to test systemicity against Ctenocephalides felis (artificial dog test, treated bovine blood); conditions: test concentration of 5 ppm or less in bovine blood; adults; assessment at 24 and 48 hours after application
[3] = tested on: Rhipicephalus sanguineus (Brown dog tick); assay: Method E: screening method to test contact activity against Rhipicephalus sanguineus (filter paper); conditions: test concentration of 100 ppm; L1 larvae on treated filter paper; assessed 24 hours after application

## CCN(CC)C(C)C(=O)Nc1c(SC(F)(F)F)c(C#N)nn1-c1c(Cl)cc(C(F)(F)F)cc1Cl (stereo not drawn) [7-13, 1-(2,6-Dichloro-4-trifluoromethylphenyl)-3-cyano-5-(2-diethylaminopropionylamino)-4-trifluoromethylthiopyrazole]
[1]
  contact control of Ctenocephalides felis: at least 70%
[2]
  control of Ctenocephalides felis: at least 90%
[3]
  contact control of Rhipicephalus sanguineus: at least 70%
